At least one compound was matched to its structure with a doubt left. Some entries share one result that the patent states for a list of compounds.
Columns and labels:
Assay type in all cases: cell-based, human
hiPSC lines = assay: Cardiac differentiation of hiPSC lines in S12 medium, FACS of CTNT-positive cells; settings: hiPSC line XVF 4 in S12 medium; 1 μM, days 5-8
Method: For small molecule-induced cardiac differentiation, hESC line H7 or hiPSCs were digested with Versene solution into single cells and seeded on VTN-NC-coated, 24-well plates at a density of 2.5-3.0×10^5 cells/well. Y27632 (10 μM) was supplemented on the first day and withdrawn thereafter. Cultures were maintained in E8 medium for 2-3 days until they reached 90% confluence. To initiate cell differentiation (designated as day 0), the medium was changed to S12 medium without insulin. Cells were treated with 4-8 μM CHIR99021 (Tocris, 4423) for 1 day. Then, the medium was replaced with fresh medium without CHIR99021. At day 3, 5 μM IWR-1 (Sigma-Aldrich, 10161) was supplied with fresh medium for 2 days. From day 5, insulin-containing S12 medium was used. Thereafter, the medium was changed every other day (FIG. 1a).
(§1) For directed differentiation of atrial or ventricular myocytes, 1 μM RA (Sigma-Aldrich, R2625) or 1 μM BMS493 (Tocris, 3509) was added to the differentiating cultures during days 5-8 of differentiation as described previously^9.
Cardiomyocytes were digested into single cells with 0.25% trypsin-EDTA (Life Technology, 25200-072) at 37° C. for about 5 min, and washed with buffer B, which contains 0.5% bovine serum albumin (Sigma, A9418-50G) in phosphate-buffered saline (PBS). […] Data were collected on FACScalibur (Becton Dickinson) and analyzed with FlowJo software (Treestar).

[1] = test system: hPSC-derived ventricular-like cardiomyocytes; assay: Perforated whole-cell patch clamp, evoked AP of ventricular-like cardiomyocytes paced at 1 Hz; settings: 1000 nM; 1 Hz stimulation
Method: Perforated whole-cell recording was used for pharmacological tests.
Nifedipine (Sigma-Aldrich, N7634) was prepared in DMSO. […] Other chemicals were from Sigma-Aldrich.

hiPSC line XVF 4 [2] = assay: QPCR of IRX4 and NR2F2 in RA- or BMS493-treated hiPSC cultures; settings: 14-day-old cultures; RA-treated versus BMS493-treated
Method: as §1
Total RNA was isolated using RNeasy Plus Mini kit (Qiagen, 74134). One microgram of total RNA was reverse transcribed using the PrimeScript™ RT reagent kit with gDNA eraser (Takara, RR047A). RT-PCR was performed with 2×Taq Mix (CW-BIO, CW0682C) according to the manufacturer's instructions. PCR products were analyzed using 1.5% agarose gel electrophoresis. QPCR was performed in triplicate using the 2×QuantiFast SYBR Green I PCR Master Mix (Qiagen, 204057) on a Rotor Gene 6200 Real-Time PCR Machine (Corbett) with an annealing temperature of 60° C. The expression of each gene was normalized to GAPDH gene expression. The primer sequences are listed in Table 4 (primer sequences for RT-PCR) and Table 5 (primer sequences for QPCR).

hiPSC line XVF 4 [3] = assay: Double immunofluorescence staining of MLC2V and CTNT in 60-day-old cultures
Method: Differentiated cultures were digested with 0.25% trypsin-EDTA, and the cells were plated on 0.1% gelatin-coated coverslips for 5 days to allow full attachment. The coverslips were washed with PBS and fixed in 4% paraformaldehyde for 20 min at 4° C. The fixed cells were then permeabilized with 0.1% Triton X-100 for 20 min at 4° C., and blocked with 10% goat serum (ZSGB-BIO, ZLI-9021) for 1 h at room temperature. Then, the cells were incubated overnight at 4° C. with the following primary antibodies: anti-human CTNT (R&D systems, MAB1874), mouse anti-human α-actinin (Sigma-Aldrich, A7811), mouse anti-human MHC (Abcam, ab15), goat anti-human α-SMA (Abcam, ab5694), mouse anti-human MLC2A (Synaptic Systems, 311011) and rabbit anti-human MLC2V (ProteinTech, 10906-1-AP). Goat anti-mouse 488- (ZSGB-BIO, ZF-0512) or 594-conjugated secondary antibody (ZSGB-BIO, ZF-0513), and goat anti-rabbit 488- (ZSGB-BIO, ZF-0511) or 594-conjugated secondary antibody (ZSGB-BIO, ZF-0516) were used as secondary antibodies. Nuclei were counterstained with 4′,6-diamidino-2-phenylindole (DAPI) (Sigma-Aldrich, D0542). Immunofluorescence images were visualized and recorded using an Olympus microscope system X51 or Olympus LSCM FV1000 (Olympus).

| SMILES | cardiac differentiation efficacy (CTNT-expressing cells) (hiPSC lines) | APA and dV/dt [1] | expression level of atrial-specific gene NR2F2 (hiPSC line XVF 4 [2]) | MLC2V expression in cardiomyocytes (hiPSC line XVF 4 [3]) |
| --- | --- | --- | --- | --- |
| CC1(C)CC=C(C#Cc2ccccc2)c2cc(/C=C/c3ccc(C(=O)O)cc3)ccc21 [BMS493] | over 80% | – | – | – |
| COC(=O)C1=C(C)NC(C)=C(C(=O)OC)C1c1ccccc1[N+](=O)[O-] [Nifedipine] | – | minor reductions | – | – |
| CC1=C(/C=C/C(C)=C/C=C/C(C)=C/C(=O)O)C(C)(C)CCC1 [RA, retinoic acid] | over 80% | – | significantly higher | not |
